Most values lie at the level of the controls, where differences are scatter.
Legend:
Assay in all cases: normalised response (% of control), CellTox Green; higher = less cell death (100 = DMSO, 0 = benzethonium chloride kill control)
Settings in all cases: incubation time: 72 h
BT-474 [1] = test system: BT-474
Protocol: (§1)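 DSRT, 72 h incubation, CellTox Green / CellTiter-Glo readout. Signal is normalised to DMSO and benzethonium chloride controls. Value is the normalised response at the lowest tested concentration.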

BT-549 [2] = test system: BT-549
Protocol: as §1

CAL-120 [3] = test system: CAL-120
Protocol: as §1

CAL-148 [4] = test system: CAL-148
Protocol: as §1

CAL-51 [5] = test system: CAL-51
Protocol: as §1

CAL-85-1 [6] = test system: CAL-85-1
Protocol: as §1

DU-4475 [7] = test system: DU-4475
Protocol: as §1

HCC1143 = test system: HCC1143
Protocol: as §1

HCC1599 [8] = test system: HCC1599
Protocol: as §1

HCC1937 [9] = test system: HCC1937
Protocol: as §1

HDQ-P1 [10] = test system: HDQ-P1
Protocol: as §1

Hs578T [11] = test system: Hs578T
Protocol: as §1

MCF-10A = test system: MCF-10A
Protocol: as §1

MDA-MB-231 [12] = test system: MDA-MB-231
Protocol: as §1

MDA-MB-436 = test system: MDA-MB-436
Protocol: as §1

MDA-MB-453 [13] = test system: MDA-MB-453
Protocol: as §1

MDA-MB-468 [14] = test system: MDA-MB-468
Protocol: as §1

MFM-223 [15] = test system: MFM-223
Protocol: as §1

BT-474 [16] = test system: BT-474; remark: listed apart in the source
Protocol: (§2)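 DSRT, 72 h incubation, CellTox Green / CellTiter-Glo readout. Signal is normalised to DMSO and benzethonium chloride controls. Value is the normalised response at dose 2.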

BT-549 [17] = test system: BT-549; remark: listed apart in the source
Protocol: as §2

CAL-120 [18] = test system: CAL-120; remark: listed apart in the source
Protocol: as §2

CAL-148 [19] = test system: CAL-148; remark: listed apart in the source
Protocol: as §2

CAL-51 [20] = test system: CAL-51; remark: listed apart in the source
Protocol: as §2

CAL-85-1 [21] = test system: CAL-85-1; remark: listed apart in the source
Protocol: as §2

DU-4475 [22] = test system: DU-4475; remark: listed apart in the source
Protocol: as §2

HCC1599 [23] = test system: HCC1599; remark: listed apart in the source
Protocol: as §2

HCC1937 [24] = test system: HCC1937; remark: listed apart in the source
Protocol: as §2

HDQ-P1 [25] = test system: HDQ-P1; remark: listed apart in the source
Protocol: as §2

Hs578T [26] = test system: Hs578T; remark: listed apart in the source
Protocol: as §2

MDA-MB-231 [27] = test system: MDA-MB-231; remark: listed apart in the source
Protocol: as §2

MDA-MB-453 [28] = test system: MDA-MB-453; remark: listed apart in the source
Protocol: as §2

MDA-MB-468 [29] = test system: MDA-MB-468; remark: listed apart in the source
Protocol: as §2

MFM-223 [30] = test system: MFM-223; remark: listed apart in the source
Protocol: as §2

Cc1c(CN2CCN(C(=O)[C@H](C)O)CC2)sc2c(N3CCOCC3)nc(-c3cnc(N)nc3)nc12 [GDC-0980] (1 nM)
normalised response (BT-474 [1]): 102% | normalised response (BT-549 [2]): 94.7% | normalised response (CAL-120 [3]): 100% | normalised response (CAL-148 [4]): 94.2% | normalised response (CAL-51 [5]): 111% | normalised response (CAL-85-1 [6]): 99.6% | normalised response (DU-4475 [7]): 102% | normalised response (HCC1143): 124% | normalised response (HCC1599 [8]): 97.9% | normalised response (HCC1937 [9]): 110% | normalised response (HDQ-P1 [10]): 86% | normalised response (Hs578T [11]): 63% | normalised response (MCF-10A): 107% | normalised response (MDA-MB-231 [12]): 107% | normalised response (MDA-MB-436): 84.6% | normalised response (MDA-MB-453 [13]): 104% | normalised response (MDA-MB-468 [14]): 79.2% | normalised response (MFM-223 [15]): 101%

CC(=O)[C@]1(O)Cc2c(O)c3c(c(O)c2[C@@H](O[C@H]2C[C@H](N)[C@H](O)[C@H](C)O2)C1)C(=O)c1ccccc1C3=O [Idarubicin] (0.1 nM)
normalised response (BT-474 [1]): 101% | normalised response (BT-549 [2]): 103% | normalised response (CAL-120 [3]): 96.5% | normalised response (CAL-148 [4]): 106% | normalised response (CAL-51 [5]): 106% | normalised response (CAL-85-1 [6]): 99.4% | normalised response (DU-4475 [7]): 101% | normalised response (HCC1143): 124% | normalised response (HCC1599 [8]): 100% | normalised response (HCC1937 [9]): 94.5% | normalised response (HDQ-P1 [10]): 102% | normalised response (Hs578T [11]): 106% | normalised response (MCF-10A): 91.1% | normalised response (MDA-MB-231 [12]): 95% | normalised response (MDA-MB-436): 68% | normalised response (MDA-MB-453 [13]): 104% | normalised response (MDA-MB-468 [14]): 72.8% | normalised response (MFM-223 [15]): 97.6%

C/C(=C\c1csc(C)n1)[C@@H]1C[C@@H]2O[C@]2(C)CCC[C@H](C)[C@H](O)[C@@H](C)C(=O)C(C)(C)[C@@H](O)CC(=O)N1 [Ixabepilone] (0.1 nM)
normalised response (BT-474 [1]): 97.5% | normalised response (BT-549 [2]): 106% | normalised response (CAL-120 [3]): 104% | normalised response (CAL-148 [4]): 99.3% | normalised response (CAL-51 [5]): 109% | normalised response (CAL-85-1 [6]): 92.6% | normalised response (DU-4475 [7]): 106% | normalised response (HCC1143): 104% | normalised response (HCC1599 [8]): 100% | normalised response (HCC1937 [9]): 100% | normalised response (HDQ-P1 [10]): 94.2% | normalised response (Hs578T [11]): 84.6% | normalised response (MCF-10A): 99.9% | normalised response (MDA-MB-231 [12]): 105% | normalised response (MDA-MB-436): 93.8% | normalised response (MDA-MB-453 [13]): 104% | normalised response (MDA-MB-468 [14]): 87.6% | normalised response (MFM-223 [15]): 92.8%

C/C(=C\c1csc(C)n1)[C@@H]1C[C@@H]2O[C@]2(C)CCC[C@H](C)[C@H](O)[C@@H](C)C(=O)C(C)(C)[C@@H](O)CC(=O)N1 [Ixabepilone] (1 nM)
normalised response (BT-474 [16]): 91.9% | normalised response (BT-549 [17]): 99% | normalised response (CAL-120 [18]): 102% | normalised response (CAL-148 [19]): 108% | normalised response (CAL-51 [20]): 111% | normalised response (CAL-85-1 [21]): 103% | normalised response (DU-4475 [22]): 100% | normalised response (HCC1599 [23]): 108% | normalised response (HCC1937 [24]): 117% | normalised response (HDQ-P1 [25]): 113% | normalised response (Hs578T [26]): 109% | normalised response (MDA-MB-231 [27]): 100% | normalised response (MDA-MB-453 [28]): 96.2% | normalised response (MDA-MB-468 [29]): 99% | normalised response (MFM-223 [30]): 97.3%

CS(=O)(=O)CCNCc1ccc(-c2ccc3ncnc(Nc4ccc(OCc5cccc(F)c5)c(Cl)c4)c3c2)o1 [Lapatinib] (0.1 nM)
normalised response (BT-474 [1]): 103% | normalised response (BT-549 [2]): 90% | normalised response (CAL-120 [3]): 98.1% | normalised response (CAL-148 [4]): 105% | normalised response (CAL-51 [5]): 124% | normalised response (CAL-85-1 [6]): 107% | normalised response (DU-4475 [7]): 102% | normalised response (HCC1143): 113% | normalised response (HCC1599 [8]): 101% | normalised response (HCC1937 [9]): 101% | normalised response (HDQ-P1 [10]): 89.9% | normalised response (Hs578T [11]): 54.7% | normalised response (MCF-10A): 98.8% | normalised response (MDA-MB-231 [12]): 105% | normalised response (MDA-MB-436): 100% | normalised response (MDA-MB-453 [13]): 110% | normalised response (MDA-MB-468 [14]): 62.4% | normalised response (MFM-223 [15]): 88.3%

S=c1[nH]cnc2nc[nH]c12 [Mercaptopurine] (1 nM)
normalised response (BT-474 [1]): 100% | normalised response (BT-549 [2]): 91.2% | normalised response (CAL-120 [3]): 101% | normalised response (CAL-148 [4]): 101% | normalised response (CAL-51 [5]): 104% | normalised response (CAL-85-1 [6]): 104% | normalised response (DU-4475 [7]): 99.8% | normalised response (HCC1143): 90.4% | normalised response (HCC1599 [8]): 98.7% | normalised response (HCC1937 [9]): 107% | normalised response (HDQ-P1 [10]): 99% | normalised response (Hs578T [11]): 97.7% | normalised response (MCF-10A): 69.9% | normalised response (MDA-MB-231 [12]): 105% | normalised response (MDA-MB-436): 58.9% | normalised response (MDA-MB-453 [13]): 96.8% | normalised response (MDA-MB-468 [14]): 129% | normalised response (MFM-223 [15]): 95.4%

Cc1[nH]c2ccccc2c1CCNCc1ccc(/C=C/C(=O)NO)cc1 [Panobinostat] (0.1 nM)
normalised response (BT-474 [1]): 101% | normalised response (BT-549 [2]): 96.6% | normalised response (CAL-120 [3]): 98% | normalised response (CAL-148 [4]): 102% | normalised response (CAL-51 [5]): 98% | normalised response (CAL-85-1 [6]): 97.6% | normalised response (DU-4475 [7]): 95.7% | normalised response (HCC1143): 101% | normalised response (HCC1599 [8]): 99.4% | normalised response (HCC1937 [9]): 83.7% | normalised response (HDQ-P1 [10]): 95.9% | normalised response (Hs578T [11]): 104% | normalised response (MCF-10A): 52.5% | normalised response (MDA-MB-231 [12]): 91.5% | normalised response (MDA-MB-436): 81.8% | normalised response (MDA-MB-453 [13]): 101% | normalised response (MDA-MB-468 [14]): 99.8% | normalised response (MFM-223 [15]): 95.1%

Cn1cc(CNCC2CCN(c3ncc(C(=O)NO)cn3)CC2)c2ccccc21 [Quisinostat] (0.1 nM)
normalised response (BT-474 [1]): 54.8% | normalised response (BT-549 [2]): 99.1% | normalised response (CAL-120 [3]): 103% | normalised response (CAL-148 [4]): 106% | normalised response (CAL-51 [5]): 96.7% | normalised response (CAL-85-1 [6]): 102% | normalised response (DU-4475 [7]): 101% | normalised response (HCC1143): 100% | normalised response (HCC1599 [8]): 93.2% | normalised response (HCC1937 [9]): 107% | normalised response (HDQ-P1 [10]): 105% | normalised response (Hs578T [11]): 112% | normalised response (MCF-10A): 90.9% | normalised response (MDA-MB-231 [12]): 107% | normalised response (MDA-MB-436): 78.9% | normalised response (MDA-MB-453 [13]): 90.8% | normalised response (MDA-MB-468 [14]): 76.1% | normalised response (MFM-223 [15]): 104%

CCCC(CCC)C(=O)O [Valproic acid] (100 nM)
normalised response (BT-474 [1]): 96.9% | normalised response (BT-549 [2]): 103% | normalised response (CAL-120 [3]): 104% | normalised response (CAL-148 [4]): 89.8% | normalised response (CAL-51 [5]): 106% | normalised response (CAL-85-1 [6]): 98% | normalised response (DU-4475 [7]): 113% | normalised response (HCC1143): 94.5% | normalised response (HCC1599 [8]): 121% | normalised response (HCC1937 [9]): 107% | normalised response (HDQ-P1 [10]): 102% | normalised response (Hs578T [11]): 108% | normalised response (MCF-10A): 108% | normalised response (MDA-MB-231 [12]): 116% | normalised response (MDA-MB-436): 115% | normalised response (MDA-MB-453 [13]): 98.2% | normalised response (MDA-MB-468 [14]): 114% | normalised response (MFM-223 [15]): 100%
